PubChem BioAssay AID1259425, University of Nebraska Medical Center | 2018
In all, the deposit lists about 14,000 reagents; below is a random part of them. Not all columns of the deposit are shown. Not stated in the record: the time to read-out.

- Test: 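Find knockdowns that reproduce the gene expression pattern seen when KSR1 is lost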 (primary screen)
- Cells: HCT116 human colon cancer cells
- Reagent: siRNA pool against human genes, 50 nM siRNA
- Measurement: 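mRNA of six signature genes measured together by branched-DNA assay after 50 nM siRNA pool, blank removed, divided by geometric mean of two housekeeping genes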
- Reading the numbers: BNIP3L mRNA: higher = more BNIP3L transcript after knockdown; NDRG1 mRNA: higher = more NDRG1 transcript after knockdown

Which result is listed for TLN1 (talin 1)?
BNIP3L mRNA, set 1: 0.225; NDRG1 mRNA, set 1: 0.267

With PLAUR (plasminogen activator, urokinase receptor), how do the results read?
BNIP3L mRNA, set 1: 0.0699; NDRG1 mRNA, set 1: 0.166

For SH3BGR (SH3 domain binding glutamate rich protein), how do the results read?
BNIP3L mRNA, set 1: 0.178; NDRG1 mRNA, set 1: 0.501

For ITGB5 (integrin subunit beta 5), how do the results read?
BNIP3L mRNA, set 1: 0.106; NDRG1 mRNA, set 1: 0.125

For SHFL (shiftless antiviral inhibitor of ribosomal frameshifting), what does the deposit list?
BNIP3L mRNA, set 1: 0.0909; NDRG1 mRNA, set 1: 0.224

What did the screen give for MYRIP (myosin VIIA and Rab interacting protein)?
BNIP3L mRNA, set 1: 0.0496; NDRG1 mRNA, set 1: 0.15

For RPS9 (ribosomal protein S9), what was measured?
BNIP3L mRNA, set 1: 0.0601; NDRG1 mRNA, set 1: 0.1

With BAG4 (BAG cochaperone 4), what was measured?
BNIP3L mRNA, set 1: 0.0614; NDRG1 mRNA, set 1: 0.166

With POMGNT2, what was measured?
BNIP3L mRNA, set 1: 0.114; NDRG1 mRNA, set 1: 0.168

Individual results from above.
Entry for PLAUR (plasminogen activator, urokinase receptor) under “NDRG1 mRNA, set 1”: 0.166
POMGNT2, NDRG1 mRNA, set 1 = 0.168
Under “BNIP3L mRNA, set 1”, SHFL (shiftless antiviral inhibitor of ribosomal frameshifting) shows 0.0909

Additional reagents:
Which result is listed for IKZF4 (IKAROS family zinc finger 4)?
BNIP3L mRNA, set 1: 0.117; NDRG1 mRNA, set 1: 0.15

With CRYGA (crystallin gamma A), what does the deposit list?
BNIP3L mRNA, set 1: 0.119; NDRG1 mRNA, set 1: 0.291

With PPM1J (protein phosphatase, Mg2+/Mn2+ dependent 1J), what was measured?
BNIP3L mRNA, set 1: 0.0784; NDRG1 mRNA, set 1: 0.0579

How did the screen score IDS (iduronate 2-sulfatase)?
BNIP3L mRNA, set 1: 0.228; NDRG1 mRNA, set 1: 0.236

What did the screen give for BMPR1A (bone morphogenetic protein receptor type 1A)?
BNIP3L mRNA, set 1: 0.0444; NDRG1 mRNA, set 1: 0.205

How did the screen score OSER1 (oxidative stress responsive serine rich 1)?
BNIP3L mRNA, set 1: 0.157; NDRG1 mRNA, set 1: 0.195

For MRPL16 (mitochondrial ribosomal protein L16), what does the deposit list?
BNIP3L mRNA, set 1: 0.0802; NDRG1 mRNA, set 1: 0.29

With HPN (hepsin), how do the results read?
BNIP3L mRNA, set 1: 0.145; NDRG1 mRNA, set 1: 0.275

What did the screen give for GPATCH2 (G-patch domain containing 2)?
BNIP3L mRNA, set 1: 0.144; NDRG1 mRNA, set 1: 0.127

For KAZN (kazrin, periplakin interacting protein), what was measured?
BNIP3L mRNA, set 1: 0.0994; NDRG1 mRNA, set 1: 0.242

For FAM131B (family with sequence similarity 131 member B), how do the results read?
BNIP3L mRNA, set 1: 0.136; NDRG1 mRNA, set 1: 0.215

What is on record for KDELR1 (KDEL endoplasmic reticulum protein retention receptor 1)?
BNIP3L mRNA, set 1: 0.195; NDRG1 mRNA, set 1: 0.207

With HLA-DRB1 (major histocompatibility complex, class II, DR beta 1), what was measured?
BNIP3L mRNA, set 1: 0.14; NDRG1 mRNA, set 1: 0.23

What did the screen give for DET1 (DET1 partner of COP1 E3 ubiquitin ligase)?
BNIP3L mRNA, set 1: 0.0993; NDRG1 mRNA, set 1: 0.537

With TMEM181 (transmembrane protein 181), what does the deposit list?
BNIP3L mRNA, set 1: 0.0517; NDRG1 mRNA, set 1: 0.154

What did the screen give for DDX50 (DExD-box helicase 50)?
BNIP3L mRNA, set 1: 0.156; NDRG1 mRNA, set 1: 0.157

For MYBBP1A (MYB binding protein 1a), what was measured?
BNIP3L mRNA, set 1: 0.119; NDRG1 mRNA, set 1: 0.756

For DBT (dihydrolipoamide branched chain transacylase E2), how do the results read?
BNIP3L mRNA, set 1: 0.0662; NDRG1 mRNA, set 1: 0.113

What did the screen give for TKT (transketolase)?
BNIP3L mRNA, set 1: 0.0481; NDRG1 mRNA, set 1: 0.236
